Assay results reported in the supplement of paper PMC10849652.
This is one part of the list.

Chains of the proteins cited; added tags and fusions are not shown. Lines headed by an entry give the natural chain unless they say otherwise; changes in a name come on top.
UniProt O00189: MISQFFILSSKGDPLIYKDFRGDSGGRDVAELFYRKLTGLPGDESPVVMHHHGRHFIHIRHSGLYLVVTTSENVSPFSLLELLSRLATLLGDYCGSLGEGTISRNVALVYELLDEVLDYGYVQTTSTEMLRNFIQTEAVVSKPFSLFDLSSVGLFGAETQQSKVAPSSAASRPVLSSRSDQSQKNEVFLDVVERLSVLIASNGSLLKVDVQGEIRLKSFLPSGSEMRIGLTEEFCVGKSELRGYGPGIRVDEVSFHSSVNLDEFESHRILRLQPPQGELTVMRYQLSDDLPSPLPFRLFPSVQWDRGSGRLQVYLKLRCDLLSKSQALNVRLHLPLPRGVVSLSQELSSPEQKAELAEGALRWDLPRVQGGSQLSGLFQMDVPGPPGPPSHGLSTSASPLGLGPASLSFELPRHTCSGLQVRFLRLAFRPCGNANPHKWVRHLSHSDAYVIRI
UniProt Q9UPS8: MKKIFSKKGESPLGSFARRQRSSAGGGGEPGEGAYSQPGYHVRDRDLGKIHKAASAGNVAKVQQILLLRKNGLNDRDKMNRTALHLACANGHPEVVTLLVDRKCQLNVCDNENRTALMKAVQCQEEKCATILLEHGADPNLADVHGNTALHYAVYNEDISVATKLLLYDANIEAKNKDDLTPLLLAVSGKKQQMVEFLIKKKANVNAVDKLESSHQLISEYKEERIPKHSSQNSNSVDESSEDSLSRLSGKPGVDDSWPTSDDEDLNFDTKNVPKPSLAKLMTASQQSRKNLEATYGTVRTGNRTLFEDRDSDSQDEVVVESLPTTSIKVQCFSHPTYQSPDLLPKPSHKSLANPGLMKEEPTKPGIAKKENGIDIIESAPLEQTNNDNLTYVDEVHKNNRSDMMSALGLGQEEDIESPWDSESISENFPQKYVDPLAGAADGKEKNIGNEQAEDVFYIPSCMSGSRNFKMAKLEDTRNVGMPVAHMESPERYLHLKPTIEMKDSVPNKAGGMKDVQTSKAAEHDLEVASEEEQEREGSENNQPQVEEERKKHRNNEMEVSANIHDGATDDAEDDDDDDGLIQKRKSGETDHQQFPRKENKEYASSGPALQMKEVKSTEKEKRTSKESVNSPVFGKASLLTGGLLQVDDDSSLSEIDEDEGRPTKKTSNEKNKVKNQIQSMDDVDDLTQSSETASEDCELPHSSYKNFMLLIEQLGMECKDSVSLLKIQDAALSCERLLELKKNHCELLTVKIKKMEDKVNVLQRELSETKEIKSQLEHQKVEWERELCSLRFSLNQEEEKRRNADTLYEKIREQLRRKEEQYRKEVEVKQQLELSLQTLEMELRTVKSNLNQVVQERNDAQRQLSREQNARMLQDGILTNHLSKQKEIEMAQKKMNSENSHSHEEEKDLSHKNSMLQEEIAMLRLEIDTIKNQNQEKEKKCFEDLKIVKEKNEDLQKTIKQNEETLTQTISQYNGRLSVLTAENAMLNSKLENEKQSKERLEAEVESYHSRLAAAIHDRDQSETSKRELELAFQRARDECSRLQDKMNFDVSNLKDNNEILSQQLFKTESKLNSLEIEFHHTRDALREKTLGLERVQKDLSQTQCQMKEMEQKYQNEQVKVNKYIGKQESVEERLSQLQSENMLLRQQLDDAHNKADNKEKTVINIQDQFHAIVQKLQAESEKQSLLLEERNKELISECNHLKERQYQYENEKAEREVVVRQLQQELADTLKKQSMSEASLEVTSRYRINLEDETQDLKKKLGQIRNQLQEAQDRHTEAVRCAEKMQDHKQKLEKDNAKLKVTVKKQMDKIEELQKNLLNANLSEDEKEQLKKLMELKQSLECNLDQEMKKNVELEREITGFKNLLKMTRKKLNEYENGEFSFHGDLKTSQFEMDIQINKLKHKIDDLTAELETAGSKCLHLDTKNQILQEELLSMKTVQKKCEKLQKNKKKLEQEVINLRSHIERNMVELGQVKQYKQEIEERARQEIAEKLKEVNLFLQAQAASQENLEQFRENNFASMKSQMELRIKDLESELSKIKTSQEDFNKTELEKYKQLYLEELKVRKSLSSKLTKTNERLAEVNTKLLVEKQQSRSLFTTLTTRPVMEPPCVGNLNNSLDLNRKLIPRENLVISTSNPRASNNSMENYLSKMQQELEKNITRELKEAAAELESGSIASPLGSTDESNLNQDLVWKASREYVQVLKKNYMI
UniProt Q86XL3: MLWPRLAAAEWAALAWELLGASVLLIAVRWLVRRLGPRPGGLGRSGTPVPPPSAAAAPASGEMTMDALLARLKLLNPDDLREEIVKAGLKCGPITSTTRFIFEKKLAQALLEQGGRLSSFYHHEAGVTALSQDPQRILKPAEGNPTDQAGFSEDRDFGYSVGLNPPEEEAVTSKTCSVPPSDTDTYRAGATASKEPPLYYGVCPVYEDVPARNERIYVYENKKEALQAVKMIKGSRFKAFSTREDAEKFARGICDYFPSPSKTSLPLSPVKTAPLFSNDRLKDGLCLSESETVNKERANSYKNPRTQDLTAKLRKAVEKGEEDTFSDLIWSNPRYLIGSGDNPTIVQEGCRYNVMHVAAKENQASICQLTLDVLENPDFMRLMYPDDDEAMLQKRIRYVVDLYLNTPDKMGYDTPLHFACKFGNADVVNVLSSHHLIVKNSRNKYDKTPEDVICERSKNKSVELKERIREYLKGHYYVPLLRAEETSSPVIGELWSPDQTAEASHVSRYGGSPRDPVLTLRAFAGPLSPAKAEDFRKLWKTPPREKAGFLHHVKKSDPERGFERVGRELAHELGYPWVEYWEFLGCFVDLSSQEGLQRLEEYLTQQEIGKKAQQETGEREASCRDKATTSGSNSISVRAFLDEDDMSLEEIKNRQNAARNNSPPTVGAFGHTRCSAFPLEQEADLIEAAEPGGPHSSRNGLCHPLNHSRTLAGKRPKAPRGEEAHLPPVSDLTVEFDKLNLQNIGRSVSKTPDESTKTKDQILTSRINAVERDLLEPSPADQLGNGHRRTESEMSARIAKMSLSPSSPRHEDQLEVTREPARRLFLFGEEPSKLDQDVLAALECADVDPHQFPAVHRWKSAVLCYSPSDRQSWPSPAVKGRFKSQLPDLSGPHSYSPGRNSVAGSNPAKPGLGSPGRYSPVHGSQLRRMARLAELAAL
UniProt Q63HQ0: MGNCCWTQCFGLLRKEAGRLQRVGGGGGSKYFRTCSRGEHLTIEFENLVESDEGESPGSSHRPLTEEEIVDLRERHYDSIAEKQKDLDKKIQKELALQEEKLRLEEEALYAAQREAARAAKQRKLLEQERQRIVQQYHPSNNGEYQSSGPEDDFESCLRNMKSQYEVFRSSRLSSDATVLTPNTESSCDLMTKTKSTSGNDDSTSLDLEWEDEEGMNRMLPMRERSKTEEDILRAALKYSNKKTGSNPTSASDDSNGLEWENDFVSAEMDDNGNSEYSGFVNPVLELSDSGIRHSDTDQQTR
UniProt P13196: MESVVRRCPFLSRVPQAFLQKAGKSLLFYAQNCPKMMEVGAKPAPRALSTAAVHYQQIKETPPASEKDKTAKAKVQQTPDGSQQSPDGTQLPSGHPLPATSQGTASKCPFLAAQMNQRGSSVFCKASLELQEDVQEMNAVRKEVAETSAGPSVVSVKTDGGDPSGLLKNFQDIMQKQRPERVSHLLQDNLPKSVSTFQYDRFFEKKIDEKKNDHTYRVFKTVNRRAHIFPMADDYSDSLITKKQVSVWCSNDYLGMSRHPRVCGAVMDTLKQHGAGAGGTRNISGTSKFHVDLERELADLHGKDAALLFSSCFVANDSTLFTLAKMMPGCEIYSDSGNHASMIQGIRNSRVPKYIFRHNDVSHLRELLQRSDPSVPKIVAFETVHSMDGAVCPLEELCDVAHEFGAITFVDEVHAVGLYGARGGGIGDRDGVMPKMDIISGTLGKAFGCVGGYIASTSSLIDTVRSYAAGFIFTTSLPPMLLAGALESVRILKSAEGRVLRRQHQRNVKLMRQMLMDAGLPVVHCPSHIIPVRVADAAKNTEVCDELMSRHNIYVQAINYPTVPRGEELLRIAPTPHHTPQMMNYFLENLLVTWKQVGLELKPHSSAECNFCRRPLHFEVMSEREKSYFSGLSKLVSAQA
UniProt P56377: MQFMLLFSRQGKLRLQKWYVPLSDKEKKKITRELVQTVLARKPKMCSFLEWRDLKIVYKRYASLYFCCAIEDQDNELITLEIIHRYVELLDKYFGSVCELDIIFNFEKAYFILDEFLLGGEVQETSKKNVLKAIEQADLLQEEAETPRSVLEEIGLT
UniProt Q96PC3: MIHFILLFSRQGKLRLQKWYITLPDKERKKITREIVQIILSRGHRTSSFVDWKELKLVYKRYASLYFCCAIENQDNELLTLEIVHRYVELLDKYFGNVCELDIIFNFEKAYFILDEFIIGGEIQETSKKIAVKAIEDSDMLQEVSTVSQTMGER
UniProt Q8N8A2: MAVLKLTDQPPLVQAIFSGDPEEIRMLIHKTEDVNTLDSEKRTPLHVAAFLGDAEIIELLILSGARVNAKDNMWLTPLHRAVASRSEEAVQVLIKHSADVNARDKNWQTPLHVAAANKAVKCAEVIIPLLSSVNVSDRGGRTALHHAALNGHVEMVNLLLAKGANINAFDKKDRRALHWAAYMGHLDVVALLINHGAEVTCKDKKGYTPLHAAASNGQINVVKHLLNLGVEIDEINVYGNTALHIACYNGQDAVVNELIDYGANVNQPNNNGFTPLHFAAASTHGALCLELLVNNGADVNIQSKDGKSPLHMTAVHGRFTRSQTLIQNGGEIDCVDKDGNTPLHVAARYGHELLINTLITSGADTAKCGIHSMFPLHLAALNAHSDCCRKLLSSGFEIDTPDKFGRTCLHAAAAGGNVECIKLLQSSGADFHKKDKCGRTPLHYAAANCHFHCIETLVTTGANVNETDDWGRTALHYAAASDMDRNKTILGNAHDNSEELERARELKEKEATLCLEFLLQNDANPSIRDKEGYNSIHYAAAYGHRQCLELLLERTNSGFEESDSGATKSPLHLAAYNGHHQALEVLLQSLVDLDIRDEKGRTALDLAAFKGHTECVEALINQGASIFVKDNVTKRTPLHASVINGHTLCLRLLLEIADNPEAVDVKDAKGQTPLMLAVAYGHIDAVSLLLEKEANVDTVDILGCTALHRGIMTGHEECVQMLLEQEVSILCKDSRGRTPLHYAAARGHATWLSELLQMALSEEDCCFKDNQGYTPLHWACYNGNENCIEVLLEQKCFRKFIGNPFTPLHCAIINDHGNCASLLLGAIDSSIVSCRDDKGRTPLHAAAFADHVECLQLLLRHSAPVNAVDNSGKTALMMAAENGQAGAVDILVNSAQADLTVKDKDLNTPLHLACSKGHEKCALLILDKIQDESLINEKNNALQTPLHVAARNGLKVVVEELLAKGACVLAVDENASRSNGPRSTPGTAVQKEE
UniProt O14617: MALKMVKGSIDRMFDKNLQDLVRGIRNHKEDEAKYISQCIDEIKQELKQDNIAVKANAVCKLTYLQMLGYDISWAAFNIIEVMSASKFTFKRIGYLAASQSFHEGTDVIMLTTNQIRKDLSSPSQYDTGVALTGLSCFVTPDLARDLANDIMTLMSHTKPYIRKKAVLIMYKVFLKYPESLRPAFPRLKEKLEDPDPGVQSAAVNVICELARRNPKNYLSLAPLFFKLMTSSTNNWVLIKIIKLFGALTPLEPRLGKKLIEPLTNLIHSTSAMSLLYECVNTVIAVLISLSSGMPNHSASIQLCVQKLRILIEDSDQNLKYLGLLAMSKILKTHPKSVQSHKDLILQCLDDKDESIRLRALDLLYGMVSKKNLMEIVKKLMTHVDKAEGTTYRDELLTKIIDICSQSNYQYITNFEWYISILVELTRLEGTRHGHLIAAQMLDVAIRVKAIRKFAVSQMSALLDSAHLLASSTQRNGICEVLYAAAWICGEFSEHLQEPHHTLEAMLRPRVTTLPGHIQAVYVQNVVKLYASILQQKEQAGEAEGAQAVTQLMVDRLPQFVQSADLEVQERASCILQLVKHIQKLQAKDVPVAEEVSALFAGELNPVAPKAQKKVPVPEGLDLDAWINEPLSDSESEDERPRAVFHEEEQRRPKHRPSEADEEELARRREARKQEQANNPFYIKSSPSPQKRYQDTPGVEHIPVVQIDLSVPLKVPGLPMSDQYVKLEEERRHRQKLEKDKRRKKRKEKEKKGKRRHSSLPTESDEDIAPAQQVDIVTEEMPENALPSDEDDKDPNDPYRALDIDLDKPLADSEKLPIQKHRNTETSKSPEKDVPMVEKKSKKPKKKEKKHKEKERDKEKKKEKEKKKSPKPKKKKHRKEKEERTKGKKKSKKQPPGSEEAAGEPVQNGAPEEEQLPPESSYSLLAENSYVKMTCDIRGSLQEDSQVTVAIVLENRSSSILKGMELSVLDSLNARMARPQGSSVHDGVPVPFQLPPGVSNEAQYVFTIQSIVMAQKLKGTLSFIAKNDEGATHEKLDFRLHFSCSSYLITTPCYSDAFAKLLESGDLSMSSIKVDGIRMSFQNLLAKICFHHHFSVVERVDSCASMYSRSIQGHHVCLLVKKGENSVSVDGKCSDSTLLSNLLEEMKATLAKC

compound: Cc1ccc(NC(=O)c2ccc(CN3CC[C@H](N(C)C)C3)c(C(F)(F)F)c2)cc1Nc1nccc(-c2cncnc2)n1 [bafetinib]; test: log2 fold change, soluble protein after heating vs DMSO (PISA); higher = thermal stabilisation; K562 lysate, 10 uM; active = over 0.2 and 3.5 SD of the protein, either way, in both replicates (recomputed)
Summary of the method: (§1)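 A 30 min treatment with 10 μM compound was applied to crude K562 extract at 1 mg/mL protein in PBS pH 7.4 with 1 mM MgCl2. Heating for 3 min spanned 48°C-58°C, after which aliquots were pooled, adjusted to 0.5% NP-40 at 4°C and spun at 21,000xg for 90 min. TMTpro 16plex LC-MS/MS of the supernatant, with channel sums equalised, gave values recorded as log-two fold change in thermal stability against solvent controls, from duplicates.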

log2 fold change, inactive:
AP4M1 (UniProt O00189) -0.026, ANKRD26 (UniProt Q9UPS8) -0.065, ANKRD30B (UniProt Q9BXX2) -0.163, ANKLE2 (UniProt Q86XL3) -0.107, AP1AR (UniProt Q63HQ0) -0.091, AMZ2 (UniProt Q86W34) -0.071, ALG12 (UniProt Q9BV10) -0.167, ALDOA (UniProt H3BPS8) -0.344, ANKRD40 (UniProt Q6AI12) -0.149, ALAS1 (UniProt P13196) 0.103, AP1S2 (UniProt P56377) -0.393, AP1S3 isoform 4 (UniProt Q96PC3) 0.113, AP3M2 (UniProt P53677) 0.077, ANKRD31 (UniProt Q8N7Z5) -0.145, ANKRD44 isoform 2 (UniProt Q8N8A2) -0.405, AP2S1 (UniProt M0QZ21) -0.055, ANGPTL4 (UniProt M0R3A2) 0.003

compound: Cc1cccc(CC(=O)N2CCc3c2ccc(-c2cn(C)c4ncnc(N)c24)c3F)n1; test: as above
Summary of the method: as §1

log2 fold change, active:
ANKRD44 isoform 2 (UniProt Q8N8A2) 0.766

log2 fold change, inactive:
AP4M1 (UniProt O00189) -0.009, ANKRD30B (UniProt Q9BXX2) 0.397, AMBRA1 isoform 5 (UniProt Q9C0C7) 0.109, ANKLE2 (UniProt Q86XL3) -0.001, ALDH3A1 (UniProt P30838) 0.586, AP1AR (UniProt Q63HQ0) 0.016, ALG12 (UniProt Q9BV10) 0.097, ALDOA (UniProt H3BPS8) -0.054, ANKRD40 (UniProt Q6AI12) -0.067, ALAS1 (UniProt P13196) 0.145, AP1S2 (UniProt P56377) -0.139, AP1S3 isoform 4 (UniProt Q96PC3) 0.139, AP3M2 (UniProt P53677) 0.052, ANKRD50 (UniProt Q9ULJ7) 0.151, AP2S1 (UniProt M0QZ21) 0.109, AMN1 (UniProt Q8IY45) -0.1, ANGPTL4 (UniProt M0R3A2) -0.192, ANAPC16 (UniProt Q96DE5) -0.145, AP3D1 isoform 2 (UniProt O14617) -0.084

compound: Cc1cn(-c2cc(NC(=O)c3ccc(C)c(Nc4nccc(-c5cccnc5)n4)c3)cc(C(F)(F)F)c2)cn1 [nilotinib]; test: as above
Summary of the method: as §1

log2 fold change, inactive:
AP4M1 (UniProt O00189) -0.013, ANKRD26 (UniProt Q9UPS8) -0.053, ANKRD30B (UniProt Q9BXX2) 0.061, ANXA6 (UniProt E5RK69) -0.076, AMBRA1 isoform 5 (UniProt Q9C0C7) 0.08, ANKLE2 (UniProt Q86XL3) -0.035, AP1AR (UniProt Q63HQ0) -0.105, AMZ2 (UniProt Q86W34) -0.063, ALDOA (UniProt H3BPS8) 0.151, ANKRD40 (UniProt Q6AI12) -0.04, ALAS1 (UniProt P13196) 0.164, ANKH (UniProt Q9HCJ1) -0.145, AP1S2 (UniProt P56377) -0.089, AP1S3 isoform 4 (UniProt Q96PC3) 0.082, AP3S2 (UniProt P59780) 0, AKT1S1 (UniProt M0R2V8) 0.068, ANKRD44 isoform 2 (UniProt Q8N8A2) -0.19, ANKRD50 (UniProt Q9ULJ7) -0.037, ANAPC16 (UniProt Q96DE5) -0.105, AP3D1 isoform 2 (UniProt O14617) -0.287

compound: Cc1nc(Nc2n[nH]c3c2CN(C(=O)N[C@H](CN(C)C)c2ccccc2)C3(C)C)c2sccc2n1; test: as above
Summary of the method: as §1

log2 fold change, inactive:
AP4M1 (UniProt O00189) 0.009, ANKRD26 (UniProt Q9UPS8) 0.265, ANKRD30B (UniProt Q9BXX2) -0.076, ANXA6 (UniProt E5RK69) 0.012, AMBRA1 isoform 5 (UniProt Q9C0C7) 0.063, ANKLE2 (UniProt Q86XL3) 0.01, AP1AR (UniProt Q63HQ0) 0.027, AMZ2 (UniProt Q86W34) 0.058, ALDOA (UniProt H3BPS8) -0.287, ANKRD40 (UniProt Q6AI12) -0.115, ALAS1 (UniProt P13196) 0.125, ANKH (UniProt Q9HCJ1) 0.064, AP1S2 (UniProt P56377) 0.077, AP1S3 isoform 4 (UniProt Q96PC3) -0.146, AP3S2 (UniProt P59780) 0.184, AKT1S1 (UniProt M0R2V8) 0.1, ANKRD44 isoform 2 (UniProt Q8N8A2) -0.03, ANKRD50 (UniProt Q9ULJ7) -0.118, ANAPC16 (UniProt Q96DE5) -0.319, AP3D1 isoform 2 (UniProt O14617) 0.035
